# Experimental data: patent publication US20120009131A1, “METHOD FOR PREVENTING OR TREATING AMYLOID BETA PEPTIDE-ASSOCIATED DISEASES OR CONDITIONS, AND METHOD FOR INHIBITING FORMATION, ACCUMULATION OR AGGREGATION OF AMYLOID BETA PEPTIDES” (Sinphar Tian-Li Pharmaceutical Co., Ltd. (Hangzhou), priority 2010, published 2012)
# How the values were obtained:
# [1] = system: SD rats infused intracerebroventricularly with Aβ1-42; experiment: Acetylcholine and choline levels in brain cortex and hippocampus of rats; type: in vivo, rat; conditions: oral; D 2.5 and 5 mg/kg, Aricept 0.75 mg/kg
# Description: (§1) The rats were anesthetized for implantation of an infusion cannula into the left cerebral ventricle thereof. After sewing up the incisions, the rats were returned to their cages. FIG. 7 illustrates the experimental schedule for animal studies. The exploration behavior tests were carried out on day 7, the passive avoidance learning tests were carried out on day 8 and 9, the water maze tests were carried on day 10 to 13, and the probe tests were carried out on day 14, after the start of Aβ1-42 infusion. […] The test samples were administered orally to the rats, 1 hour before the tests (i.e., the exploration behavior tests, the passive avoidance learning tests, and the water maze tests) throughout the experimental period. […] All the test samples were prepared freshly with deionized distilled water (ddH2O) every day, and were administered orally by stomach tube.
# (§2) Significant difference between the Aβ1-42 control group and the other experimental groups were indicated by *., P<0.05, *.*, P<0.01, and. ***., P<0.001.
# After the water maze performance tests, all rats were decapitated and their brains were rapidly removed from the skull. […]
# [2] = system: SD rats infused intracerebroventricularly with Aβ1-42; experiment: Dopamine (DA) and metabolites DOPAC and HVA levels in brain cortex and hippocampus of rats; type: in vivo, rat; conditions: for DA level / DOPAC level / HVA level: oral 0.75 mg/kg, mean±SD
# Description: as §1, §2
# After the water maze performance tests, all rats were decapitated and their brains were rapidly removed from the skull. According to Glowinski and Iversen, the brain cortex and hippocampus were separated, and then each cortex and hippocampus were weighed and were homogenized by addition of 50 mM Na-phosphate buffer (pH 7.8) for analyzing the concentrations of neurotransmitters and the levels of enzymes.
structure (smiles),measurement,setting,value
"COc1cc2c(cc1OC)C(=O)C(CC1CCN(Cc3ccccc3)CC1)C2 (centres unmarked) [Aricept, reference compound]",acetylcholine levels in the brain cortex and hippocampus,[1],reverse the decrease in acetylcholine levels
same,DA level,[2]; brain cortex,3.10 ± 0.46
same,DOPAC level,[2]; brain cortex,10.49 ± 2.38
same,HVA level,[2]; brain cortex,2.42 ± 0.78
same,DA level,[2]; brain hippocampus,1.33 ± 0.37
same,DOPAC level,[2]; brain hippocampus,3.19 ± 1.00
same,HVA level,[2]; brain hippocampus,2.45 ± 0.33
same,DA levels in the cortex and hippocampus (in words),"[2]; oral, D 2.5 and 5 mg/kg, Aricept 0.75 mg/kg",reverse the decrease in DA levels
